Results taken from PMC5673186.
Results are given in words; binding and its absence hold for the method and conditions named. Some entries that bind do so weakly or less than the wild type.

Chains of the proteins cited; added tags and fusions are not shown. Lines headed by an entry give the natural chain unless they say otherwise; changes in a name come on top. Residues count along the entry.
UniProt Q9HCN6, residues 21-267: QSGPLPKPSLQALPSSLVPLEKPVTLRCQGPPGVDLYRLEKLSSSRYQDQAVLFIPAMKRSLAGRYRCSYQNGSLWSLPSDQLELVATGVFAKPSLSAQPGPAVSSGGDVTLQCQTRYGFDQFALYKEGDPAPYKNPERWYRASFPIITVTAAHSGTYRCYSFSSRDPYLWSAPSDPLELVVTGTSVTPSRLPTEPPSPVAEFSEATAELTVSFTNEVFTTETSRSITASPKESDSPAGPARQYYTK
UniProt P02453: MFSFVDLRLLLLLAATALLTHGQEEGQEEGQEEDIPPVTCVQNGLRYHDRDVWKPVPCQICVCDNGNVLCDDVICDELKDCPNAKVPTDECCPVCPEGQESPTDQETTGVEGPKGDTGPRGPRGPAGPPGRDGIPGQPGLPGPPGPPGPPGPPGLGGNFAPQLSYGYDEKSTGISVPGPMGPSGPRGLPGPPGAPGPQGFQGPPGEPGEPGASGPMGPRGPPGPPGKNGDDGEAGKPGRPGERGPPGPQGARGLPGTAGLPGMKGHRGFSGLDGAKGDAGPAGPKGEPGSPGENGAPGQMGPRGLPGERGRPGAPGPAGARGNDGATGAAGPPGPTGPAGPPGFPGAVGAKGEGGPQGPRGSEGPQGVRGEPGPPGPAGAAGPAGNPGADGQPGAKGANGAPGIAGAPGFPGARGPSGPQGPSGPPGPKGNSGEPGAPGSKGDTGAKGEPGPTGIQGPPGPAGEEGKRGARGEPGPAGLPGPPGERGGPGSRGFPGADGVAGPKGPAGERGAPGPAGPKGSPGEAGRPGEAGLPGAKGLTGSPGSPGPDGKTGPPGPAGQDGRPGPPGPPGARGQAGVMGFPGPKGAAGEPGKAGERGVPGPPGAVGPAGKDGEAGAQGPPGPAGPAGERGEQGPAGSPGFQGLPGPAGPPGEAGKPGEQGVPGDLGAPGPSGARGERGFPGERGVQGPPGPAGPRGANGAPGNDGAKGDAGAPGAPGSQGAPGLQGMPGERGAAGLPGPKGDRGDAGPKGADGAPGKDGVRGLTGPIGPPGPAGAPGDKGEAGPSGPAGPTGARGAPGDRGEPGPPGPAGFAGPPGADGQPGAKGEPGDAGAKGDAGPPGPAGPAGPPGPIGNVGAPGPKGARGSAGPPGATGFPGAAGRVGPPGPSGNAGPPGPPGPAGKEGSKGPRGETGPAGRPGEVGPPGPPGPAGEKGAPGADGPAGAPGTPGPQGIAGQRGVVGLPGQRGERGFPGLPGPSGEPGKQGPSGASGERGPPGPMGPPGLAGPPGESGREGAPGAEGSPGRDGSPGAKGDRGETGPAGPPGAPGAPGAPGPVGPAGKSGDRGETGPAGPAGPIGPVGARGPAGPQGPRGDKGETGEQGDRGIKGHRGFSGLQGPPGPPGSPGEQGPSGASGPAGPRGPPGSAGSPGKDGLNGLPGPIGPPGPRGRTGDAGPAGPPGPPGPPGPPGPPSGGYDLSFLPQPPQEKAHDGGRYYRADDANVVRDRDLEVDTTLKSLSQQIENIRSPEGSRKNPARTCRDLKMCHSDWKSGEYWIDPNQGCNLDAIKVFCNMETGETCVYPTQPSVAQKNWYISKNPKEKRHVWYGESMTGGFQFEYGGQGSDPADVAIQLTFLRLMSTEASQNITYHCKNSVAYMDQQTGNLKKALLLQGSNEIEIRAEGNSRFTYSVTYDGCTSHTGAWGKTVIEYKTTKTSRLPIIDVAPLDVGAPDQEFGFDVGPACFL

Target: Platelet recombinant human GPVI Protein (aa21-267) with a C-terminal His6 tag (human) (UniProt Q9HCN6)
Test: SPR; GPVI-His6 captured on anti-His antibody immobilised on a CM5 chip (Biacore T200); collagen flowed over as positive control; 18°C; 10 mM phosphate buffer, 2.7 mM KCl, 137 mM NaCl, pH 7.4; signals referenced to the anti-His antibody surface and normalised by capture level and molecular mass; both purified

binding: binds
Substance: Bovine Collagen Type I (from UniProt P02453 162-1217; P02465 80-1117)
